The source of these data is article PMC8439062.

These are yes or no findings as the source states them, for the method shown. Binding seen in cells or lysates may run through a third protein. Some results given as binding are weak or reduced against the parent protein; the word gives no strength. Tags and fused reporters may be left off the sequences shown.

The target in assay [1] is T1, HA-MG53(N), N-terminal part of human MG53 (aa 1-269) with the TRIM domain (human) (UniProt Q6ZMU5).
T1 sequence: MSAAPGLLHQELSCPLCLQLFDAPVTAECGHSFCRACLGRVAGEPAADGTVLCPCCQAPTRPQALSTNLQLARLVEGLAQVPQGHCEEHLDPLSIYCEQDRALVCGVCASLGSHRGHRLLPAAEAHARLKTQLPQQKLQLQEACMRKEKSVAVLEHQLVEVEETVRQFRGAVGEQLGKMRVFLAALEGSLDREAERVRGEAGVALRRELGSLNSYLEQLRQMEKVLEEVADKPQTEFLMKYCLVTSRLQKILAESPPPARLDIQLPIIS
As to the kind of experiment: co-IP; HEK293 cells transfected with HA-MG53 (full length or deletion mutants) and Myc-DDK-tagged G3BP2 for 24 hr, MG132 (10 uM) for 16 hr; RIPA buffer lysate; IP with anti-HA magnetic beads, blot with anti-HA and anti-G3BP2.

Assay [2] has as its target T2, HA-MG53(C), C-terminal part of human MG53 (aa 246-477) with the PRY-SPRY domains (human) (UniProt Q6ZMU5).
T2 sequence: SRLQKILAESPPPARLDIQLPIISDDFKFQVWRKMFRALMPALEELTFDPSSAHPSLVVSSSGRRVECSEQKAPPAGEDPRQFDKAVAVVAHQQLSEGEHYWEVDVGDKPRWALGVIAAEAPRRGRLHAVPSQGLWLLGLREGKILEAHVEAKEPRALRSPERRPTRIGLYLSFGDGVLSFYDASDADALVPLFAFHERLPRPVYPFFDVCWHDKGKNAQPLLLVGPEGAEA
The description is as above.

B1: Myc-DDK-tagged G3BP2 (Ras GTPase-activating protein-binding protein 2) (protein, UniProt Q9UN86 1-482)
chain: MVMEKPSPLLVGREFVRQYYTLLNKAPEYLHRFYGRNSSYVHGGVDASGKPQEAVYGQNDIHHKVLSLNFSECHTKIRHVDAHATLSDGVVVQVMGLLSNSGQPERKFMQTFVLAPEGSVPNKFYVHNDMFRYEDEVFGDSEPELDEESEDEVEEEQEERQPSPEPVQENANSGYYEAHPVTNGIEEPLEESSHEPEPEPESETKTEELKPQVEEKNLEELEEKSTTPPPAEPVSLPQEPPKAFSWASVTSKNLPPSGTVSSSGIPPHVKAPVSQPRVEAKPEVQSQPPRVREQRPRERPGFPPRGPRPGRGDMEQNDSDNRRIIRYPDSHQLFVGNLPHDIDENELKEFFMSFGNVVELRINTKGVGGKLPNFGFVVFDDSEPVQRILIAKPIMFRGEVRLNVEEKKTRAARERETRGGGDDRRDIRRNDRGPGGPRGIVGGGMMRDRDGRGPPPRGGMAQKLGSGRGTGQMEGRFTGQRR
For B1, the binding entry in assay [1] is given as “binds”; in assay [2] it was “no binding”.
